Results deposited as PubChem BioAssay AID1259308 (NCATS, 2017)

Test: 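Candidate targets for better recombinant protein yield in mammalian cells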 (primary screen)
Cells: human HEK293 embryonic kidney cells stably expressing firefly luciferase (HEK-CMV-Luc2-Hygro)
Reagents: single siRNA against human genes, 0.8 pmol siRNA per well
Timing: 72 h
Detection: 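Luciferase light (ONE-Glo) measured on one replicate plate set and viability (CellTiter-Glo) on the other, scaled to a negative control siRNA, with robust z-scores and luciferase per cell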
Scale: total luciferase, z-score and total luciferase, % of control: higher = more reporter protein produced; luciferase per cell, z-score: higher = more reporter output per viable cell; viable cells, % of control: higher = more viable cells
Call rule: 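Active when the median/MAD z-score for overall luciferase is greater than 3; a gene was taken forward for validation with new siRNAs if at least two of its three siRNAs passed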
Meaning of the calls: active = raised luciferase; inactive = no rise
In all, the deposit lists about 59,000 reagents; shown is a part drawn at random. In the full data, about 1,510 (2.6%) were called active. 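Calls use total luciferase alone and ignore viability, so some active siRNAs may act by altering cell number.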 The numbers tell different reagents against one gene apart. Reagent sequences are not shown.

gene | reagent | total luciferase, z-score | total luciferase, % of control | luciferase per cell, z-score | viable cells, % of control | outcome
PCDHB11 | 1 | -0.27 | 76.5 | -0.364 | 94.1 | inactive
PCDHB11 | 2 | -0.0905 | 80.1 | 0.0527 | 88.3 | inactive
PCDHB11 | 3 | -0.0468 | 81 | -0.0176 | 90.9 | inactive
NKPD1 | 1 | 1.38 | 109 | 1.52 | 82 | inactive
NKPD1 | 2 | -0.253 | 76.9 | -0.208 | 90.7 | inactive
NKPD1 | 3 | -0.486 | 72.2 | -0.0122 | 81 | inactive
KRAS | 1 | 0.105 | 84 | 0.236 | 88.2 | inactive
KRAS | 2 | -0.572 | 70.5 | -0.88 | 99.3 | inactive
KRAS | 3 | -0.342 | 75.1 | -0.535 | 96.6 | inactive
NBEAL2 | 1 | -0.231 | 77.3 | -0.777 | 106 | inactive
NBEAL2 | 2 | 0.433 | 90.5 | 0.0153 | 101 | inactive
NBEAL2 | 3 | -0.102 | 79.8 | -0.436 | 100 | inactive
GBP5 | 1 | -2.32 | 35.7 | -1.89 | 65.7 | inactive
GBP5 | 2 | 1.15 | 105 | 1.68 | 75.3 | inactive
GBP5 | 3 | -0.889 | 64.2 | -0.712 | 86.5 | inactive
CREB3L2 | 1 | 1.85 | 119 | 2.16 | 75.1 | inactive
CREB3L2 | 2 | -0.946 | 63.1 | -1.46 | 104 | inactive
CREB3L2 | 3 | -0.214 | 77.6 | -0.671 | 103 | inactive
TM6SF2 | 1 | -0.38 | 74.3 | 0.79 | 67.5 | inactive
TM6SF2 | 2 | 0.938 | 101 | 1.36 | 78.5 | inactive
TM6SF2 | 3 | -0.486 | 72.2 | -0.585 | 94.2 | inactive
LINC00467 | 1 | 0.978 | 101 | 0.581 | 97.2 | inactive
LINC00467 | 2 | 0.372 | 89.3 | 0.0928 | 97.4 | inactive
LINC00467 | 3 | 3.94 | 160 | 4.21 | 59.1 | active
SMARCA1 | 1 | 0.187 | 85.6 | 0.692 | 79.7 | inactive
SMARCA1 | 2 | -0.635 | 69.2 | -0.9 | 98.1 | inactive
SMARCA1 | 3 | 1.25 | 107 | 0.414 | 107 | inactive
IDO2 | 1 | 2.59 | 133 | 1.62 | 97.2 | inactive
IDO2 | 2 | -0.571 | 70.5 | -0.39 | 87.4 | inactive
IDO2 | 3 | -0.502 | 71.9 | 0.0244 | 79.8 | inactive
ALAD | 1 | 4.18 | 165 | 2.36 | 99 | active
ALAD | 2 | -0.681 | 68.3 | -0.548 | 88.2 | inactive
ALAD | 3 | -0.067 | 80.6 | -0.372 | 99.3 | inactive
MTHFSD | 1 | 3.11 | 144 | 2.39 | 85.7 | active
MTHFSD | 2 | 0.321 | 88.3 | 0.513 | 86.2 | inactive
MTHFSD | 3 | 0.581 | 93.4 | -0.38 | 115 | inactive
SIGLEC6 | 1 | 0.609 | 94 | 0.932 | 82.2 | inactive
SIGLEC6 | 2 | -0.421 | 73.5 | -0.547 | 94.9 | inactive
SIGLEC6 | 3 | 0.773 | 97.3 | 0.582 | 93.2 | inactive
